Source: US4481192A (SANOFI, priority 1982, dated 1984)
HELM strings list residues between dots; [ac] is acetyl, [am] amide, other brackets name non-standard units. Non-standard residues stand in square brackets, D forms with d. *: point of attachment. Sta = CC(C)C[C@H](N)[C@@H](O)CC(=O)O; Cbz = O=C(OCc1ccccc1)*; Boc = CC(C)(C)OC(=O)*

Experiment: general procedure: solution-phase peptide synthesis; active esters (ONSu, ONp, OTcp) with HOBt/NEM; DCCI/HONSu; Bop/DIPEA
Details: coupling step

Row | Substance | step yield
1 | Adoc--Phe--Phe--Sta--Ala--Sta--OMe | 58%
2 | Adoc--Phe--Trp--Sta--Ala--Sta--OMe | 65%
3 | Boc--His(Boc)--Phe--Sta--Ala--Sta--OMe | 60%
4 | Boc--Nle--Sta--Ala--Sta--OMe | 90%
5 | Boc--Nva--Sta--Ala--Sta--OMe | 51%
6 | Boc-F[Sta]A[Sta]-OMe | 70%
7 | Boc-H[Sta]A[Sta]-OMe | 53%
8 | Boc-I[Sta]A[Sta]-OMe | 56%
9 | Boc-L[Sta]A[Sta]-OMe | 38%
10 | Boc-P[Sta]A[Sta]-OMe | 85%
11 | Boc-V[Sta]A[Sta]-OMe | 38%
12 | Boc-W[Sta]A[Sta]-OMe | 56%
13 | Boc-W[dW][Sta]A[Sta]-OMe | 85%
14 | Boc-[dF][Sta]A[Sta]-OMe | 37%
15 | Boc-[dV][Sta]A[Sta]-OMe | 40%
16 | Boc-[dW]W[Sta]A[Sta]-OMe | 42%
17 | Boc-[dW][Sta]A[Sta]-OMe | 58%
18 | Cbz-FF[Sta]A[Sta]-OMe | 69%
19 | Cbz-FP[Sta]A[Sta]-OMe | 54%
20 | Cbz-FV[Sta]A[Sta]-OMe | 81%
21 | Cbz-F[dV][Sta]A[Sta]-OMe | 29%
22 | Cbz-F[dW][Sta]A[Sta]-OMe | 51%

Row | Substance | step yield
23 | Cbz-YV[Sta]A[Sta]-OMe | 85%
24 | Cbz-YY[Sta]A[Sta]-OMe | 71%
25 | Cbz-Y[Sta]A[Sta]-OMe | 75%
26 | PEPTIDE1{[Boc].F.F.[Sta].A.[Sta].[OMe]}$$$$V2.0 | 65%
27 | PEPTIDE1{[Boc].F.H.[Sta].A.[Sta].[OMe]}$$$$V2.0 | 45%
28 | PEPTIDE1{[Boc].I.H.[Sta].A.[Sta].[OMe]}$$$$V2.0 | 24%
29 | PEPTIDE1{[Boc].W.W.[Sta].A.[Sta].[OMe]}$$$$V2.0 | 44%
30 | PEPTIDE1{[Boc].[dF].F.[Sta].A.[Sta].[OMe]}$$$$V2.0 | 82%
31 | PEPTIDE1{[Boc].[dF].V.[Sta].A.[Sta].[OMe]}$$$$V2.0 | 85%
32 | PEPTIDE1{[PhPr].F.F.[Sta].A.[Sta].[OMe]}$$$$V2.0 | 71%
33 | PEPTIDE1{[PhSO2].F.F.[Sta].A.[Sta].[OMe]}$$$$V2.0 | 34.5%
34 | PEPTIDE1{[ac].F.[Nva].[Sta].A.[Sta].[OMe]}$$$$V2.0 | 63%
35 | PEPTIDE1{[iVa].F.A.[Sta].A.[Sta].[OMe]}$$$$V2.0 | 88%
36 | PEPTIDE1{[iVa].F.F.[Sta].A.[Sta].[OMe]}$$$$V2.0 | 73%
37 | PEPTIDE1{[iVa].F.G.[Sta].A.[Sta].[OMe]}$$$$V2.0 | 42%
38 | PEPTIDE1{[iVa].F.L.[Sta].A.[Sta].[OMe]}$$$$V2.0 | 55%
39 | PEPTIDE1{[iVa].F.[Lys(Z)].[Sta].A.[Sta].[OMe]}$$$$V2.0 | 87%
40 | PEPTIDE1{[tBuAc].F.F.[Sta].A.[Sta].[OMe]}$$$$V2.0 | 72%
41 | Z Phe--Trp--Sta--Ala--Sta--OMe | 92%
42 | Z--Phe--ILe--Sta--Ala--Sta--OMe | 86%
43 | iVa--Phe--Nle--Sta--Ala--Sta--OMe | 73%
44 | iVa--Phe--Phe--Sta--Ala--Sta--NH2 | 58%

Same assay, conditions: late stage modification step

Row | Substance | step yield
45 | Boc-FF[Sta]A[Sta]-OH | 87%
46 | H--Leu--Sta--Ala--Sta--OMe.TFA | 100%
47 | H--Nva--Sta--Ala--Sta--OMe.TFA | 100%
48 | H-P[Sta]A[Sta]-OMe | 100%
49 | H-V[Sta]A[Sta]-OMe | 100%
50 | H-Y[Sta]A[Sta]-OMe | 96%

Same assay, conditions: late stage modification step, 2TFA salt

Row | Substance | step yield
51 | H--His--Sta--Ala--Sta--OMe.2TFA | 91%

Same assay, conditions: late stage modification step, TFA salt

Row | Substance | step yield
52 | H--(D)Phe--Sta--Ala--Sta--OMe.TFA | 93%
53 | H--(D)Trp--Sta--Ala--Sta--OMe.TFA | 95%
54 | H--(D)Val--Sta--Ala--Sta--OMe.TFA | 100%
55 | H--Ile--Sta--Ala--Sta--OMe.TFA | 93%
56 | H--Phe--Sta--Ala--Sta--OMe.TFA | 98%
